Measured values from US20080268507.
For part of these data: The comparison behind a weaker result is the experiment's own reference, which may not be listed here. Where a protein sequence is shown, tags need not be part of it. For part of these data: Construct, isoform or probe ends are uncertain for at least one entry.

Columns and labels:
[1] = test system: T1, M.CviPII (Chlorella virus NYs-1); assay: activity in cells; details: bisulfite sequencing, protein in cells, protein details: expressed in E. coli ER2502 from pUC-cviPIIM, only the site is given
T1 sequence (limits assumed): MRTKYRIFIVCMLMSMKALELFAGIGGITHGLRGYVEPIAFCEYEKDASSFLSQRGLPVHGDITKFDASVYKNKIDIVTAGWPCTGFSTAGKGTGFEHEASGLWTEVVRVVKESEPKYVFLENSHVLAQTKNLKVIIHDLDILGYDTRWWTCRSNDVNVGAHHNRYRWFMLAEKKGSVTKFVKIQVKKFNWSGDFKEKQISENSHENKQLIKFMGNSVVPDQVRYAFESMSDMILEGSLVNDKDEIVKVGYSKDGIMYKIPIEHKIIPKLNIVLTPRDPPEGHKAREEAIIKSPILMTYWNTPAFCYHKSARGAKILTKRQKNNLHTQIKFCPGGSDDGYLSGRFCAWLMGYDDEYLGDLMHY

[2] = test system: T2, Nt.CviPII (His+) (Chlorella virus NYs-1); assay: enzyme reaction in vitro; details: 37 C 1 h, purified recombinant protein, protein details: 6xHis, expressed in E. coli ER2683
T2 sequence: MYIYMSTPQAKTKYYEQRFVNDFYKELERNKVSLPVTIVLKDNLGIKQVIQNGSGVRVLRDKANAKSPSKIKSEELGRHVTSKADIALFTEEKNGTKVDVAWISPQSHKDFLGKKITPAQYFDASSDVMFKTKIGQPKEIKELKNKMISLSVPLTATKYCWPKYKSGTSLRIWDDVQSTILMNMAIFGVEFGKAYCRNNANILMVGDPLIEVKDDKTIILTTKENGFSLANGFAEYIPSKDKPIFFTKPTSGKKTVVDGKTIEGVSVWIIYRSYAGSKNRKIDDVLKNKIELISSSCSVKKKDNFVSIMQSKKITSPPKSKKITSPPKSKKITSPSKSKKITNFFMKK

ATGGCCATGT (double strand) [CCA methylation site in pUC-cviPIIM]
activity on this sequence ([1]; first C methylated): active

CCTGATCGGGAACTA (double strand) [CCCG methylation site in pUC-cviPIIM]
activity on this sequence ([1]; first two Cs methylated (relaxed specificity, overexpression)): active

CGATACGTCGTAAGATACTTGCGGCGAATGCAAGCGATAAGCTTGGCGTAATCATGGCCC (double strand) [CCG substrate]
activity on this sequence ([2]; nicked 5' of first C, run-off sequencing): active

GAACCAAAATA (double strand) [CCAA methylation site in pUC-cviPIIM]
activity on this sequence ([1]; first and second C methylated (relaxed specificity, overexpression)): active

GATACGTCGTAAGATCTTGAGGCGAATGAGCGATAAGCTTGGCGTAATCATGGACATAGCTG (double strand) [CCT substrate]
activity on this sequence ([2]; only a small amount cleaved): less active

TACGGCCGGG (double strand) [CCG methylation site in pUC-cviPIIM]
activity on this sequence ([1]; first C methylated): active
